{"source": "PubChem BioAssay AID652243, Drosophila RNAi Screening Center, 2013", "test": "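Fly genes required for human androgen receptor driven transcription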 (primary screen)", "cells": "Drosophila S2R+ cells", "reagents": "long dsRNA against Drosophila genes", "timing": "72 h (48 h, then 24 h hormone)", "challenge": "synthetic androgen R1881 at 10 nM for 24 h", "measured": "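Per-well raw luminescence of the androgen-driven firefly reporter and of the Renilla control, two replicates each, without normalisation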", "scale": "firefly reporter light: higher = more light from androgen-responsive reporter; Renilla control light: higher = more constitutive control signal (cell number, transfection)", "rule for the call": "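Hit when the log firefly-to-Renilla ratio dropped or increased by a fixed fold versus the mean of GFP or LacZ controls across duplicate plates; lowering cut given as 1.5 and as 3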", "calls": "active = hit: reporter lowered or raised; inactive = no hit", "note": "The deposit covers about 24,000 reagents; below is an unselected part of those that have a named target and a result. Of all reagents, 246 (1%) are marked active. 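Plates not normalised; calls are printed but the firefly/Renilla ratio behind them is not deposited; fold cut for lowering reported inconsistently.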 The raw values are shown without normalisation. The record does not give: the amount of reagent."}
{"predicted target": "kkv (krotzkopf verkehrt)", "dsRNA": "DRSC12315", "firefly reporter light, replicate 1": 45390, "firefly reporter light, replicate 2": 56818, "Renilla control light, replicate 1": 4.11e5, "Renilla control light, replicate 2": 4.15e5, "Call": "inactive"}
{"predicted target": "CG6420", "dsRNA": "DRSC16035", "firefly reporter light, replicate 1": 2.29e5, "firefly reporter light, replicate 2": 2.05e5, "Renilla control light, replicate 1": 2.50e6, "Renilla control light, replicate 2": 2.19e6, "Call": "inactive"}
{"predicted target": "CG13671", "dsRNA": "DRSC10030", "firefly reporter light, replicate 1": 9.42e5, "firefly reporter light, replicate 2": 1.08e6, "Renilla control light, replicate 1": 9.01e5, "Renilla control light, replicate 2": 1.43e6, "Call": "inactive"}
{"predicted target": "vri (vrille)", "dsRNA": "DRSC23174", "firefly reporter light, replicate 1": 7.11e5, "firefly reporter light, replicate 2": 9.71e5, "Renilla control light, replicate 1": 9.53e5, "Renilla control light, replicate 2": 1.39e6, "Call": "inactive"}
{"predicted target": "vri (vrille)", "dsRNA": "DRSC26054", "firefly reporter light, replicate 1": 2.98e5, "firefly reporter light, replicate 2": 2.91e5, "Renilla control light, replicate 1": 7.56e5, "Renilla control light, replicate 2": 6.37e5, "Call": "inactive"}
{"predicted target": "CG32544", "dsRNA": "DRSC20033", "firefly reporter light, replicate 1": 1.18e5, "firefly reporter light, replicate 2": 50340, "Renilla control light, replicate 1": 4.46e5, "Renilla control light, replicate 2": 2.00e5, "Call": "inactive"}
{"predicted target": "CG32544", "dsRNA": "DRSC25570", "firefly reporter light, replicate 1": 8.18e5, "firefly reporter light, replicate 2": 7.55e5, "Renilla control light, replicate 1": 5.68e5, "Renilla control light, replicate 2": 6.92e5, "Call": "inactive"}
{"predicted target": "CG32655", "dsRNA": "DRSC18925", "firefly reporter light, replicate 1": 7.96e5, "firefly reporter light, replicate 2": 7.41e5, "Renilla control light, replicate 1": 1.37e6, "Renilla control light, replicate 2": 5.51e5, "Call": "inactive"}
{"predicted target": "gprs", "dsRNA": "DRSC06761", "firefly reporter light, replicate 1": 76534, "firefly reporter light, replicate 2": 60462, "Renilla control light, replicate 1": 1.40e6, "Renilla control light, replicate 2": 1.40e6, "Call": "inactive"}
{"predicted target": "CG8036", "dsRNA": "DRSC16366", "firefly reporter light, replicate 1": 1.20e5, "firefly reporter light, replicate 2": 82430, "Renilla control light, replicate 1": 1.62e6, "Renilla control light, replicate 2": 1.58e6, "Call": "inactive"}
{"predicted target": "GIIIspla2 (Phospholipase A2 group III)", "dsRNA": "DRSC18094", "firefly reporter light, replicate 1": 1.09e5, "firefly reporter light, replicate 2": 69992, "Renilla control light, replicate 1": 8.60e5, "Renilla control light, replicate 2": 7.05e5, "Call": "inactive"}
{"predicted target": "GIIIspla2 (Phospholipase A2 group III)", "dsRNA": "DRSC27426", "firefly reporter light, replicate 1": 1.97e5, "firefly reporter light, replicate 2": 2.36e5, "Renilla control light, replicate 1": 7.80e5, "Renilla control light, replicate 2": 6.46e5, "Call": "inactive"}
{"predicted target": "CG33912", "dsRNA": "DRSC37815", "firefly reporter light, replicate 1": 4.36e5, "firefly reporter light, replicate 2": 4.88e5, "Renilla control light, replicate 1": 1.08e6, "Renilla control light, replicate 2": 1.11e6, "Call": "inactive"}
{"predicted target": "CG8630", "dsRNA": "DRSC16441", "firefly reporter light, replicate 1": 39316, "firefly reporter light, replicate 2": 58578, "Renilla control light, replicate 1": 1.37e6, "Renilla control light, replicate 2": 1.56e6, "Call": "active"}
{"predicted target": "CG8630", "dsRNA": "DRSC24081", "firefly reporter light, replicate 1": 5.69e5, "firefly reporter light, replicate 2": 7.95e5, "Renilla control light, replicate 1": 1.27e6, "Renilla control light, replicate 2": 1.18e6, "Call": "inactive"}
{"predicted target": "CG32099", "dsRNA": "DRSC21352", "firefly reporter light, replicate 1": 6.80e5, "firefly reporter light, replicate 2": 6.78e5, "Renilla control light, replicate 1": 1.81e6, "Renilla control light, replicate 2": 1.51e6, "Call": "inactive"}
{"predicted target": "Cyp9f2 (Cytochrome P450 9f2)", "dsRNA": "DRSC16635", "firefly reporter light, replicate 1": 77933, "firefly reporter light, replicate 2": 59144, "Renilla control light, replicate 1": 5.35e5, "Renilla control light, replicate 2": 7.78e5, "Call": "inactive"}
{"predicted target": "dmpd (dampened)", "dsRNA": "DRSC06092", "firefly reporter light, replicate 1": 1.16e6, "firefly reporter light, replicate 2": 4.23e5, "Renilla control light, replicate 1": 2.03e6, "Renilla control light, replicate 2": 9.48e5, "Call": "inactive"}
{"predicted target": "CG11570", "dsRNA": "DRSC09844", "firefly reporter light, replicate 1": 2.41e5, "firefly reporter light, replicate 2": 2.79e5, "Renilla control light, replicate 1": 2.37e6, "Renilla control light, replicate 2": 1.63e6, "Call": "inactive"}
{"predicted target": "CG5984", "dsRNA": "DRSC15930", "firefly reporter light, replicate 1": 2.08e5, "firefly reporter light, replicate 2": 2.61e5, "Renilla control light, replicate 1": 1.94e6, "Renilla control light, replicate 2": 3.18e6, "Call": "inactive"}
{"predicted target": "CG30036", "dsRNA": "DRSC21334", "firefly reporter light, replicate 1": 7.06e5, "firefly reporter light, replicate 2": 6.90e5, "Renilla control light, replicate 1": 2.82e6, "Renilla control light, replicate 2": 1.70e6, "Call": "inactive"}
